# According to PubChem BioAssay (Tox21):
# The chains behind the UniProt entries cited, without tags or fusion partners. Where a name states a change or a piece, a line headed by the entry shows the natural chain unless it says otherwise.
# UniProt P28223, whole entry, looked up: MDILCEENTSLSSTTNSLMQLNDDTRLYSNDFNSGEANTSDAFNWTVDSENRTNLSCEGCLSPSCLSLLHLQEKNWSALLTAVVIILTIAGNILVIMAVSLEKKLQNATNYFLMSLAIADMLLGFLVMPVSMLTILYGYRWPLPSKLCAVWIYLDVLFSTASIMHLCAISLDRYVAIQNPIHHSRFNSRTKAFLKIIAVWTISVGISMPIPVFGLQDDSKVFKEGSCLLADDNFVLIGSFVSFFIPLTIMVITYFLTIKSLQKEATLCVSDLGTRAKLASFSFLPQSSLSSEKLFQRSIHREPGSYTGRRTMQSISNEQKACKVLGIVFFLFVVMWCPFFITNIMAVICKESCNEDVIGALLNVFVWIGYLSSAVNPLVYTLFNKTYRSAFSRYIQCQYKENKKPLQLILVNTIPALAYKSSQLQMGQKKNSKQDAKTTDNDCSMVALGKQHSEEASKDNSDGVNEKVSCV
# UniProt P14416, whole entry, looked up: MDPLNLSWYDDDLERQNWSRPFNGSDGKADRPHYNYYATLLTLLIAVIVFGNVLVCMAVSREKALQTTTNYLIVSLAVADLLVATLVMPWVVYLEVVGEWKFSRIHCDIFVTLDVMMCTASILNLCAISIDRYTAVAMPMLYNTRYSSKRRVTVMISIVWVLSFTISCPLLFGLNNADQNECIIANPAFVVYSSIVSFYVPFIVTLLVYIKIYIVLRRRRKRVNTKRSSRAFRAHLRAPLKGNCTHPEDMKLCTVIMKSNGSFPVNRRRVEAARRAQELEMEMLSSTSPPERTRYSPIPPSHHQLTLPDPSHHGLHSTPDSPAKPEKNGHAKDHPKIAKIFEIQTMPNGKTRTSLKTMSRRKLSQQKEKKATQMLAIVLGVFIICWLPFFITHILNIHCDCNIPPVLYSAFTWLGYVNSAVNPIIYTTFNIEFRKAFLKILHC
# UniProt P11229: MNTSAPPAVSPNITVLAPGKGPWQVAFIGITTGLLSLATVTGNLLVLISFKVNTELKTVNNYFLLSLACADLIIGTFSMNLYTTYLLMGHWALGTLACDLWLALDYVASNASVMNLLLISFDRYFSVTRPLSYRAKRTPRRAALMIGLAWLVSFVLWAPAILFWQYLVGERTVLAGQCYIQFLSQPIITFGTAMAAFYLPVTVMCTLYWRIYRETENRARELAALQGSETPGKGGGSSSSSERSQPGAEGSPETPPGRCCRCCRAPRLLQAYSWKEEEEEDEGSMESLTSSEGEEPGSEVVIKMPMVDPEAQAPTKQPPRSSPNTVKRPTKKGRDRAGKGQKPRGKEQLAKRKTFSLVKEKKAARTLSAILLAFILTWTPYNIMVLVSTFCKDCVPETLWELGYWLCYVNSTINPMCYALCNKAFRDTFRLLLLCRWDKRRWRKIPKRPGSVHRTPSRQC
# Where “and” joins values, the source holds several entries; their conditions need not be identical. Equal entries are not always repeated. The shares of active, inactive and inconclusive entries below differ from those in the screen. Where the call is inconclusive, the potency comes from a doubtful curve fit. Calls of active or inactive are those of the source. Unless noted, the call rests on the fitted dose curve.
# Experiments:
# [1] = p53 small molecule agonists, cell-based qHTS assay with human liver microsomes (AID 1963577); conditions: HCT-116 p53RE-bla with human liver microsomes, ratio, 16 h; activation: at 66 µM (top of the series) unless noted;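 on activation: p53 response element beta-lactamase reporter cells with liver microsomes plus NADPH; on the % scale 0 is the no-effect control and ±100 the full control effect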
# How it was run: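 Metabolically competent format: test substances, human liver microsomes and NADPH (both 0.5 mg/mL final) incubated with p53RE-bla cells 16 h at 37 C. Beta-lactamase reporter signal then quantified by fluorescence.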
# [2] = p53 small molecule agonists, cell-based qHTS assay with rat liver microsomes (AID 1963578); conditions: HCT-116 p53RE-bla, beta-lactamase ratio, 16 h; activation: at 66 µM (top of the series) unless noted
# How it was run: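 Each plate received p53RE-bla cells, then compound, then rat liver microsomes and NADPH (both 0.5 mg/mL final). Plates were held 16 h at 37 C, and beta-lactamase activity was detected with LiveBLAzer over 2 h.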
# [3] = biological target: 5-hydroxytryptamine receptor 2A (Homo sapiens) (UniProt P28223); assay: 5-hydroxytryptamine receptor 2A (HTR2A) small molecule agonists, cell-based qHTS assay (AID 1963587); conditions: HTR2A-CHO cells, calcium flux fluorescence, agonist mode; activation: at 76.8 µM (top of the series); further: nearly all actives have a fitted effect of over 30% in size; on activation: on the % scale 0 is the no-effect control and ±100 the full control effect
# How it was run: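 CHO cells stably expressing human HTR2A, plated 18 h, loaded with calcium dye 1 h at 37 C. Agonist mode: compounds added and intracellular calcium fluorescence recorded kinetically for 2 min at 1 sec intervals.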
# [4] = biological target: Beta-2 adrenergic receptor (Homo sapiens) (UniProt P07550); assay: Adrenergic beta2 receptor (ADRB2) small molecule agonists, cell-based qHTS assay (AID 1963593); conditions: CHO-ADRB2 cells, cAMP HTRF, 30 min;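 on activation: CHO cells stably overexpressing human ADRB2; on the % scale 0 is the no-effect control and ±100 the full control effect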
# How it was run: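 CHO cells stably over-expressing ADRB2 were plated overnight at 37C, then dosed with compounds plus a stimulation mix containing 100uM IBMX and 25uM Ro-20-1724 for 0.5hr at room temperature. cAMP was measured by HTRF competition, 1hr.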
# [5] = biological target: D(2) dopamine receptor (Homo sapiens) (UniProt P14416); assay: Dopamine D2 receptor (DRD2) small molecule agonists, cell-based qHTS assay (AID 1963594); conditions: HEK293-DRD2 cAMP HTRF, agonist mode, 30 min; activation: at 92.4 µM (top of the series) unless noted; further: nearly all actives have a fitted effect of over 35% in size
# How it was run: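 HEK293 cells stably expressing human DRD2, pre-treated with PDE inhibitor Ro20-1724 (0.1 mM final) and compound 10 min at room temperature, then stimulated with NKH477 (200nM […]) for 30 min. cAMP read by HTRF (665/620 nm).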
# [6] = p53 small molecule agonists, cell-based qHTS assay with human liver microsomes: qHTS cell viability counter screen (AID 1963579); further: nearly all actives have a fitted effect of over 45% in size
# How it was run: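 Tox21 library compounds, delivered from DMSO stocks, were tested on p53RE-bla cells together with 0.5 mg/mL human liver microsomes and 0.5 mg/mL NADPH (final) over 16 h at 37 C; CellTiter-Glo luminescence served as the cytotoxicity measure.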
# [7] = p53 small molecule agonists, cell-based qHTS assay with rat liver microsomes: qHTS cell viability counter screen (AID 1963580); further: nearly all actives have a fitted effect of over 45% in size
# How it was run: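 After the beta-lactamase ratio was read, CellTiter-Glo was added to the same wells and luminescence measured at 30 min; cells had been treated 16 h at 37 C with compounds, rat liver microsomes and NADPH (0.5 mg/mL final each).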
# [8] = p53 small molecule agonists, cell-based qHTS assay: qHTS cell viability counter screen (AID 1963581); further: nearly all actives have a fitted effect of over 45% in size
# How it was run: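 Multiplexed with the reporter read, a CellTiter-Glo step (30 min, room temperature) gauges ATP-based viability of HCT-116 p53RE-bla cells after 16 h compound incubation at 37 C.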
# [9] = p53 small molecule agonists, cell-based qHTS assay (AID 1963582; active means well fitted activation curve with a large enough effect in the signal ratio in the repeat runs, not every such curve was filed as active; inconclusive means weak or mixed curves; the % refers to the signal ratio); conditions: HCT-116 p53RE-bla reporter, beta-lactamase FRET ratio, 16 h; activation: at 66 µM (top of the series) unless noted
# How it was run: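 Beta-lactamase reporter cells (p53RE-bla) treated with compounds for 16 h at 37 C; FRET substrate, 2 h, room temperature; fluorescence intensity.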
# [10] = biological target: 5-hydroxytryptamine receptor 2A (Homo sapiens) (UniProt P28223); assay: 5-hydroxytryptamine receptor 2A (HTR2A) small molecule antagonists, cell-based qHTS assay (AID 1963586); further: nearly all actives have a fitted effect of over 45% in size
# How it was run: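 CHO cells stably expressing human HTR2A were plated for 18 h at 37 C, then loaded with calcium dye for 1 h. Compounds were preincubated 5 min at room temperature before DOI (4 nM solution) was added. Kinetic fluorescence was read for 3 min.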
# [11] = cAMP Responsive Elements (CRE) small molecule agonists, cell-based qHTS assay (AID 1963590); conditions: CRE-bla HEK293T, beta-lactamase FRET ratio, 3 h; activation: at 92.4 µM (top of the series) unless noted
# How it was run: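 Quantitative HTS for CRE agonists: HEK 293T CRE-bla cells, overnight plating, 3 h compound incubation at 37 C/5% CO2, then 2 h room-temperature LiveBLAzer B/G FRET substrate loading.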
# [12] = biological target: Muscarinic acetylcholine receptor M1 (Homo sapiens) (UniProt P11229); assay: Cholinergic receptor muscarinic 1 (CHRM1) small molecule antagonists, cell-based qHTS assay (AID 1963588); further: nearly all actives have a fitted effect of over 40% in size
# How it was run: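 Compounds were tested at 15 concentrations in three independent runs. Dye-loaded CHRM1-CHO cells were exposed 5 min at room temperature before stimulation by acetylcholine added at 50nM. Intracellular calcium was read kinetically on FDSS for 3 min.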
# [13] = biological target: D(2) dopamine receptor (Homo sapiens) (UniProt P14416); assay: Dopamine D2 receptor (DRD2) small molecule antagonists, cell-based qHTS assay (AID 1963595; active means well fitted inhibition curve with a large enough effect in the signal ratio in the repeat runs, with a control signal flat; inconclusive means weak or mixed curves, or effect the other way; the % refers to the signal ratio); conditions: HEK293-DRD2 cAMP HTRF antagonist mode; activity change, negative = inhibition: at 92.4 µM (top of the series) unless noted
# How it was run: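 HEK293 cells stably expressing DRD2 were preincubated with 0.1 mM Ro20-1724, then with compound for 10 min at room temperature. Cells were stimulated with 200 nM NKH477 plus 12 nM quinpirole for 30 min, and cAMP was read by HTRF.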
# [14] = cAMP Responsive Elements (CRE) small molecule antagonists, cell-based qHTS assay (AID 1963591; active means well fitted inhibition curve with a large enough effect in the signal ratio in the repeat runs, not every such curve was filed as active; inconclusive means weak or mixed curves, or effect the other way; the % refers to the signal ratio; on activity change, negative = inhibition: on the % scale 0 is the no-effect control and ±100 the full control effect); conditions: CRE-bla HEK293T, beta-lactamase FRET ratio; activity change, negative = inhibition: at 92.4 µM (top of the series) unless noted
# How it was run: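 Fluorescence intensity from cleaved LiveBLAzer B/G substrate (2 h, room temperature) quantified CRE-bla activity in HEK 293T cells exposed 3 h to compound with 0.25 uM final NKH477.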
# [15] = biological target: Beta-2 adrenergic receptor (Homo sapiens) (UniProt P07550); assay: Adrenergic beta2 receptor (ADRB2) small molecule antagonists, cell-based qHTS assay (AID 1963592); conditions: CHO-ADRB2 cells, isoproterenol-stimulated cAMP HTRF ratio, 0.5 h; activity change, negative = inhibition: at 92.4 µM (top of the series) unless noted; further: nearly all actives have a fitted effect of over 50% in size
# How it was run: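 Assay format: CHO-ADRB2 cells, 18-20hr seeding at 37C/5% CO2, then compound plus 1nM isoproterenol agonist mix for 0.5hr RT. Homogeneous time-resolved fluorescence cAMP detection after 1hr, expressed as 665/615 nm ratio.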
# [16] = activation: at 92.4 µM (top of the series) unless noted
# Potency means the concentration at half of the fitted maximal effect.
smiles,measurement,setting,value
COP(=S)(OC)Oc1cc(Cl)c(Cl)cc1Cl,Potency,[1],"inconclusive: 720 nM [fluorescent, full curve] and inconclusive: 1.99 µM [fluorescent, partial curve]"
same,Potency,[2],"inconclusive: 1.61 µM [fluorescent, full curve] and inconclusive: 2.51 µM [fluorescent, full curve]"
same,Potency,[3],inactive
same,activation,[4]; at 42.5 µM (top of the series),inconclusive: 9.01%
same,activation,[4]; at 92.4 µM (top of the series),inconclusive: -11.6%
same,Potency,[5],"inconclusive: 26.6 µM [rising, partial curve, poor fit]"
Nc1ccc(Cl)cc1C(=O)c1ccccc1,activation,[1],inconclusive: -18.8%
same,Potency,[6],"inconclusive: 40.8 µM [cytotoxic, single point]"
same,Potency,[7],"inconclusive: 51.3 µM [cytotoxic, single point]"
same,Potency,[8],"inconclusive: 7.25 µM [rising, full curve]"
same,Potency,[9],"inconclusive: 11.5 µM [fluorescent, full curve, poor fit]"
same,Potency,[10],"inconclusive: 14.9 µM [inhibitor, full curve, poor fit]"
same,Potency,[3],"inconclusive: 43.6 µM [activator, partial curve, poor fit]"
same,Potency,[11],inconclusive: 68.6 µM [fluorescent]
same,Potency,[4]; [16],"inconclusive: 68.6 µM [inhibitor, single point]"
COP(=S)(OC)SCN1C(=O)c2ccccc2C1=O,Potency,[1],"inconclusive: 4.11 µM [fluorescent, full curve] and inconclusive: 1.82 µM [fluorescent, full curve] and inconclusive: 998 nM [fluorescent, full curve]"
same,Potency,[2],"inconclusive: 461 nM [fluorescent, full curve] and inconclusive: 5.13 µM [fluorescent, partial curve] and inconclusive: 561 nM [fluorescent, full curve]"
same,Potency,[12],"inconclusive: 18.8 µM [inhibitor, full curve]"
same,Potency,[4]; [16],"inconclusive: 30.6 µM [inhibitor, partial curve, poor fit]"
same,activation,[4]; [16],inconclusive: 4.37%
same,Potency,[13],"inconclusive: 68.6 µM [inhibitor, partial curve, poor fit]"
CNC(=O)Oc1cccc(N=CN(C)C)c1,Potency,[1],"inconclusive: 1.82 µM [rising, full curve]"
same,Potency,[2],"inconclusive: 36.3 µM [fluorescent, partial curve]"
same,Potency,[10],"inconclusive: 1.06 µM [inhibitor, full curve, poor fit]"
same,Potency,[4]; [16],inactive
CNC(=O)O/N=C(/CSC)C(C)(C)C,Potency,[1],"inconclusive: 18.2 µM [activator, partial curve]"
same,Potency,[2],"inconclusive: 6.46 µM [fluorescent, partial curve]"
same,Potency,[14],inactive
same,Potency,[4]; [16],inactive
CNC(=O)Oc1cccc2c1OC(C)(C)C2,Potency,[1],"inconclusive: 10.5 µM [activator, full curve, poor fit] and inconclusive: 913 nM [fluorescent, full curve]"
same,Potency,[2],"inconclusive: 10.5 µM [fluorescent, full curve] and inconclusive: 16.2 µM [fluorescent, full curve]"
same,Potency,[11],inactive
same,Potency,[14],inactive
same,activation,[4]; [16],inconclusive: 13.3%
same,"activity change, negative = inhibition",[13],inconclusive: -13.1%
c1ccc2c(c1)[nH]c1cnccc12,activation,[1],inconclusive: 26.4%
same,Potency,[2],active: 36.4 µM
same,Potency,[9],"inconclusive: 40.8 µM [falling, partial curve]"
same,Potency,[10],"inconclusive: 1.68 µM [inhibitor, single point]"
same,Potency,[4]; [16],inactive
CCOP(=S)(OCC)Oc1nc(Cl)c(Cl)cc1Cl,Potency,[1],"inconclusive: 8.16 µM [fluorescent, partial curve]"
same,Potency,[2],"inconclusive: 2.46 µM [fluorescent] and inconclusive: 5.13 µM [fluorescent, partial curve]"
same,Potency,[9],inconclusive: 40.9 µM
same,Potency,[10],inactive
same,Potency,[12],"inconclusive: 0.842 µM [inhibitor, full curve, poor fit]"
same,Potency,[11],"inconclusive: 54.6 µM [fluorescent, partial curve] and inconclusive: 61.1 µM [fluorescent]"
same,Potency,[14],"inconclusive: 61.1 µM [activator, single point]"
same,"activity change, negative = inhibition",[14],inconclusive: -27.7%
same,"activity change, negative = inhibition",[15],inconclusive: 14%
same,activation,[4]; [16],inconclusive: 1.04%
same,activation,[4]; at 92.4 µM (top of the series),inactive: 14.8%
same,"activity change, negative = inhibition",[13],inconclusive: -13.2%
COP(=O)(OC)Oc1ccc([N+](=O)[O-])cc1,Potency,[1],active: 3.24 µM
same,Potency,[2],"inconclusive: 0.814 µM [fluorescent, full curve]"
same,Potency,[15],"inconclusive: 68.6 µM [falling, partial curve, poor fit]"
same,activation,[4]; [16],inconclusive: 26.1%
c1ccc2cc3c(cc2c1)-c1cccc2cccc-3c12,Potency,[1],inconclusive: 5.68 µM [fluorescent]
same,Potency,[2],active: 18 µM
same,Potency,[9],"inconclusive: 2.54 µM [fluorescent, partial curve]"
same,Potency,[10],"inconclusive: 0.415 µM [inhibitor, single point]"
same,Potency,[11],"inconclusive: 9.55 µM [fluorescent, partial curve]"
same,Potency,[14],"inconclusive: 6.76 µM [fluorescent, full curve, poor fit]"
same,Potency,[4]; [16],inactive

# An excerpt of these results, tab-delimited.
smiles	measurement	setting	value
CCOP(=S)(OCC)Oc1nc(Cl)c(Cl)cc1Cl	Potency	[1]	inconclusive: 8.16 µM [fluorescent, partial curve]
same	Potency	[2]	inconclusive: 2.46 µM [fluorescent] and inconclusive: 5.13 µM [fluorescent, partial curve]
same	Potency	[9]	inconclusive: 40.9 µM
same	Potency	[10]	inactive
same	Potency	[12]	inconclusive: 0.842 µM [inhibitor, full curve, poor fit]
same	Potency	[11]	inconclusive: 54.6 µM [fluorescent, partial curve] and inconclusive: 61.1 µM [fluorescent]
